Measurements as given in article doi:10.1101/2023.01.12.523874.

Tests used:
Assay in all cases: pull-down
[1] = biological target: T1, GST-FliF_2, N-terminus (1-80) of Vibrio FliF containing the first transmembrane region (Vibrio alginolyticus) (UniProt Q75N27)
T1 sequence: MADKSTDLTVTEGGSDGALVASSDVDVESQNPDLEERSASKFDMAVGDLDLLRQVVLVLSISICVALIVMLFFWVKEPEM

[2] = biological target: T2, GST-FliF_3, periplasmic region (74-469) of Vibrio FliF (Vibrio alginolyticus) (UniProt Q75N27)
T2 sequence: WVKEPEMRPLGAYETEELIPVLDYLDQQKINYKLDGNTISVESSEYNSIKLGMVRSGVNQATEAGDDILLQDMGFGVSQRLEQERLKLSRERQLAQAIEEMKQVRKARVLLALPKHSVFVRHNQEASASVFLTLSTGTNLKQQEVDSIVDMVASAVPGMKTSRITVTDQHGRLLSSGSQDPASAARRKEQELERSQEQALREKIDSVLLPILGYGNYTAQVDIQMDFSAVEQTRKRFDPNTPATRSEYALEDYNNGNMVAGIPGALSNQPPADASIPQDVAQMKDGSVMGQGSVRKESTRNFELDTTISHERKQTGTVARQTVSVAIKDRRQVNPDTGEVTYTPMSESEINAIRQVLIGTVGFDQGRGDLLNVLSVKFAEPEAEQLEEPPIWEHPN

[3] = biological target: T3, GST-FliF_1, N-terminus (1-55) of Vibrio FliF without the first transmembrane region (Vibrio alginolyticus) (UniProt Q75N27)
T3 sequence: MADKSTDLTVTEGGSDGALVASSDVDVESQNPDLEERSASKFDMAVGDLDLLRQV

[4] = biological target: T4, GST-FliF_4, C-terminus (493-580) of Vibrio FliF after the second transmembrane region (Vibrio alginolyticus) (UniProt Q75N27)
T4 sequence: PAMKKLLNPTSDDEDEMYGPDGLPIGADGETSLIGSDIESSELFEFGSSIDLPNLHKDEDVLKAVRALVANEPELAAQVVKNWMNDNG

Measured: binding

FlhF overproduced from plasmid pTSK110 (Vibrio alginolyticus)
no binding: all assays above

These are yes or no findings as the source states them, for the method shown. Binding seen in cells or lysates may run through a third protein. Tags and fused reporters may be left off the sequences shown.
